# From PubChem BioAssay AID2685 (National Center for Advancing Translational Sciences (NCATS), 2010)
# The other results are listed elsewhere or left out. These are further read-outs of the screen, such as a control signal, another cell line or another target. No call is given for them. Compounds called inactive in the main read-out are mostly missing here. The note in brackets gives the kind of curve behind each potency; many fits are weak.
# Assay: qHTS Assay for Lipid Storage Modulators in Drosophila S3 Cells;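 as to cell number change: cells counted by Cell Tracker Red CMTPX staining in the red channel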
# Conditions: BODIPY lipid droplet fluorescence, 18-24 h; for cell number change: measured here: cell count max response, cells fed with added oleic acid
# In short: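 Laser-scanning cytometry quantifies lipid droplet accumulation (500–530 nm total intensity; droplet/cell object ratio) in oleic acid-fed (400 uM added) Drosophila S3 cells treated with a concentration series. 20 uM Triacsin C defined 100% inhibition.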
# [1] = measured here: lipid fluorescence (Fed channel) AC50, cells fed with added oleic acid
# [2] = measured here: cell number channel AC50, cells fed with added oleic acid
Structure (SMILES),cell number change,AC50 [1],AC50 [2]
COc1cc(Cl)c(C)cc1NC(=O)CCN1C(=O)NC(C)(C)C1=O,-12.9%,–,–
O=c1ccc(-c2nc3cc(Cl)ccc3n2Cc2ccccc2)c[nH]1,13.6%,"20600 nM [rising, single point]",–
CCOc1ccc2nc(SCC(=O)NCc3ccc(S(N)(=O)=O)cc3)sc2c1,-21.2%,"18400 nM [falling, single point]",–
CCOc1ccc(NC(=O)c2nn(-c3ccc(OC)cc3OC)c(=O)c3ccccc23)cc1,-20.5%,"6510 nM [rising, partial curve, poor fit]",–
CC(=O)NC1(C(F)(F)F)NC(=O)N(C2CCCCC2)C1=O (stereo not drawn),-6.43%,–,–
Cc1nc2ccc(NC(=O)Cc3cccc(F)c3)cc2s1,67.9%,–,"29100 nM [rising, partial curve, poor fit]"
COc1ccccc1OCC(=O)/C=C1/N(C)c2ccccc2C1(C)C,-132%,–,"18400 nM [falling, single point]"
COc1cccc(-c2nn(-c3ccccc3)cc2C(=O)O)c1,-24.2%,"146 nM [falling, full curve, poor fit]","461 nM [falling, full curve, poor fit]"
O=C(COc1ccccc1)Nc1ccc(N2CCCCC2)cc1,93.5%,–,"18400 nM [rising, partial curve]"
O=C(Cc1ncc(C(F)(F)F)cc1Cl)NCCc1ccccc1,-9.52%,–,"3660 nM [falling, single point]"
CC(=O)NCCn1ccc2ccccc21,-173%,–,"29100 nM [falling, single point]"
Cc1ccc(C(=O)CSc2ncn[nH]2)cc1,1.47%,"580 nM [falling, single point]",–
CCc1noc(C)c1C(=O)Nc1cc(S(=O)(=O)N(CC)CC)ccc1N1CCOCC1,11%,"8200 nM [rising, partial curve, poor fit]",–
Cc1nn(-c2ccccc2)c(Cl)c1C(=O)Nc1ccccc1,–,"3260 nM [rising, partial curve]",–
CN(C)S(=O)(=O)c1ccc(N2CCN(S(=O)(=O)c3ccc(F)cc3)CC2)c(Cl)c1,-25.4%,"58 nM [falling, full curve, poor fit]","5.17 nM [falling, full curve, poor fit]"
CCc1nnc(NC(=O)CSc2nnc(Cc3cccn3C)n2C)s1,-17.6%,"820 nM [falling, full curve]","4.11 nM [falling, full curve, poor fit]"
COC(=O)c1cc(S(=O)(=O)NCC2CCN(Cc3ccccc3F)CC2)c[nH]1,-27%,–,–
CCc1c(C)nc2ncnn2c1N1CCC(C(=O)Nc2ccc(C)cc2)CC1,-3.47%,"461 nM [falling, full curve]",–
COCCc1ncc(CN2CCC(C(=O)Nc3cccc(-c4cscn4)c3)CC2)cn1,-28.1%,"18400 nM [falling, single point]",–
COc1cc(OC)cc(C(C(=O)NCc2ccccc2)N(Cc2ccco2)C(=O)c2ccno2)c1 (stereo not drawn),5.79%,–,"1840 nM [rising, partial curve, poor fit]"

# Molecules shown so far containing a halogen:
Structure (SMILES),cell number change,AC50 [1],AC50 [2]
COc1cc(Cl)c(C)cc1NC(=O)CCN1C(=O)NC(C)(C)C1=O,-12.9%,–,–
O=c1ccc(-c2nc3cc(Cl)ccc3n2Cc2ccccc2)c[nH]1,13.6%,"20600 nM [rising, single point]",–
CC(=O)NC1(C(F)(F)F)NC(=O)N(C2CCCCC2)C1=O (stereo not drawn),-6.43%,–,–
Cc1nc2ccc(NC(=O)Cc3cccc(F)c3)cc2s1,67.9%,–,"29100 nM [rising, partial curve, poor fit]"
O=C(Cc1ncc(C(F)(F)F)cc1Cl)NCCc1ccccc1,-9.52%,–,"3660 nM [falling, single point]"
Cc1nn(-c2ccccc2)c(Cl)c1C(=O)Nc1ccccc1,–,"3260 nM [rising, partial curve]",–
CN(C)S(=O)(=O)c1ccc(N2CCN(S(=O)(=O)c3ccc(F)cc3)CC2)c(Cl)c1,-25.4%,"58 nM [falling, full curve, poor fit]","5.17 nM [falling, full curve, poor fit]"
COC(=O)c1cc(S(=O)(=O)NCC2CCN(Cc3ccccc3F)CC2)c[nH]1,-27%,–,–

# Remaining list, next part.

Structure (SMILES),cell number change,AC50 [1],AC50 [2]
Cc1ccc(Sc2nnc(-c3ccccc3)cc2C#N)cc1,57%,"2590 nM [rising, partial curve]","1640 nM [rising, full curve]"
O=C1CC(c2ccc(F)cc2)Cc2nc(N3CCN(c4ccccc4)CC3)ncc21 (stereo not drawn),-21.1%,"580 nM [rising, single point]",–
CCOC(=O)C1=C(C)NC(C)=C(C(=O)OCC)C1c1ccc(O)cc1,-6.68%,–,"146 nM [falling, full curve, poor fit]"
O=C(O)/C=C/c1ccccc1Oc1ccc(Cl)cc1Cl,51.1%,"29100 nM [rising, single point]","29100 nM [rising, single point]"
COc1ccccc1/C=N/N1CCN(Cc2ccccc2Cl)CC1,14.6%,"29100 nM [rising, single point]","4.11 nM [rising, full curve, poor fit]"
Cc1nc2ccc(NC(=O)c3ccc(C)c(S(=O)(=O)N4CCOCC4)c3)cc2s1,-10.3%,–,"1030 nM [rising, partial curve]"
COC(=O)c1ccc(NC(=O)c2cn(-c3ccccc3)nc2-c2ccncc2)cc1,–,"2310 nM [rising, partial curve]","2310 nM [rising, partial curve]"
Cc1ccc(C(=O)Nc2ccc3c(c2)ncn3C)cc1,3.17%,"32600 nM [rising, single point]",–
CC1CCCC(NC(=O)CSc2ccc(F)cc2)C1C (stereo not drawn),–,–,"130 nM [rising, full curve, poor fit]"
COc1ccc(-c2noc(CNC(=O)CCN3C(=O)[C@H]4CC=CC[C@H]4C3=O)n2)cc1,17.9%,"29100 nM [rising, single point]","1160 nM [rising, full curve, poor fit]"
O=C(NNC(=O)C12CC3CC(CC(C3)C1)C2)c1ccncc1,22.2%,–,"146 nM [rising, full curve, poor fit]"
O=C(O)c1ccc(S(=O)(=O)N2CCSCC2)cc1,12.8%,–,–
COc1ccc(C(=O)NC2CCN(C(=O)NCc3ccccc3)CC2)cc1,11.7%,–,"92 nM [rising, full curve, poor fit]"
[N-]=[N+]=NC(c1ccccc1)c1nc2ccccc2[nH]c1=O (stereo not drawn),-2.72%,"11600 nM [falling, partial curve]",–
CN=C1c2ccccc2CN1c1cccc(C(=O)OC)c1,-11.1%,"25900 nM [rising, single point]",–
Cc1ccc2cc(C)c(Sc3nnnn3-c3ccccc3)nc2c1,–,–,"651 nM [rising, single point]"
O=C(COC(=O)Cc1cccc(C(F)(F)F)c1)Nc1ccc2c(c1)OCCO2,-26.2%,"4110 nM [falling, full curve, poor fit]","4110 nM [falling, full curve, poor fit]"
Cc1ccc(S(=O)(=O)N2CCN(CC(O)CN3CCOCC3)CC2)cc1 (stereo not drawn),–,"580 nM [falling, full curve]",–
Cc1cc(Cl)ccc1OCCCC(=O)OCC(=O)Nc1cccc(S(N)(=O)=O)c1,6.93%,–,–
CC1(NC(=S)N(CCO)CCO)CCS(=O)(=O)C1 (stereo not drawn),3.81%,–,–

Structure (SMILES),cell number change,AC50 [1],AC50 [2]
O=C(Nc1ccc(Cl)cc1)C(c1ccccc1)N(CCO)CCO (stereo not drawn),0.532%,"14600 nM [falling, single point]",–
Cc1cc(=O)[nH]c2c1c(C)nn2C1CCCC1,-8.96%,"4.61 nM [falling, full curve, poor fit]",–
CCCCC(=O)Oc1c(S(=O)(=O)c2ccccc2)c(C)nn1C(C)(C)C,-16.7%,"580 nM [rising, single point]",–
COc1ccc(NC(=O)N2CCCC(c3nc(-c4ccc(F)cc4)no3)C2)cc1 (stereo not drawn),-3.1%,"92 nM [falling, full curve, poor fit]",–
CCNc1ccc(S(=O)(=O)N(C)C)cc1NCC(=O)Nc1ccccc1Br,–,"92 nM [falling, full curve]","184 nM [falling, partial curve]"
CC(=O)Nc1ccc(NC(=O)c2ccc(N(C)S(=O)(=O)c3ccc(C)cc3)cc2)cc1,-2.05%,"2310 nM [rising, partial curve]",–
CCCCOc1ccc(/C(O)=C2/C(=O)C(=O)N(Cc3cccnc3)C2c2ccncc2)c(C)c1 (stereo not drawn),–,"6510 nM [rising, partial curve, poor fit]","580 nM [rising, single point]"
CC(OC(=O)c1ccc2c(=O)n3c(nc2c1)CCC3)C(N)=O (stereo not drawn),22.3%,"731 nM [rising, single point]",–
O=C(Nc1cc(S(=O)(=O)N2CCOCC2)ccc1N1CCOCC1)c1cn2ccccc2n1,-4.47%,–,–
c1ccc(-c2ccc(-c3nc(-c4ccccn4)no3)cc2)cc1,–,–,"1160 nM [rising, full curve]"
CCCCCCCCCS(=O)(=O)Nc1cc(C)ccn1,19.6%,–,"4110 nM [rising, single point]"
Cc1cc(C)nc(SCCS(=O)(=O)Cc2ccccc2)n1,10%,"16400 nM [rising, single point]",–
CC(Sc1nc2ncc(Cl)cc2[nH]1)C(=O)Nc1ccc(C(N)=O)cc1 (stereo not drawn),-13.3%,"1640 nM [falling, partial curve]","5.17 nM [falling, full curve, poor fit]"
Cc1cc(C(=O)N/N=C/c2ccc(N(C)C)o2)cs1,-8.5%,"25900 nM [falling, single point]",–
O=C(Nc1nnc(-c2ccccc2)o1)c1nc2ccccc2s1,–,–,"5800 nM [falling, single point]"
O=C(Nc1cccc(Cl)c1N1CCCC1)c1ccc([N+](=O)[O-])o1,16.4%,"411 nM [rising, full curve]","461 nM [rising, full curve]"
O=S(=O)(c1ccccc1)N1N=C(c2ccc(Br)cc2)CC1c1ccco1 (stereo not drawn),–,"18400 nM [falling, single point]",–
CC(=O)N[C@@H](Cc1ccc(O)cc1)CN1C(N)=NC[C@@H]1CC(C)C,-7.78%,"29100 nM [rising, single point]",–
Cc1ccc(NC(=O)COC(=O)CN2C(=O)NC3(CCCC3)C2=O)cc1S(=O)(=O)N(C)C,-22.4%,–,–

# Whole records as entered above. Order of values: cell number change	AC50 [1]	AC50 [2]
# O=c1ccc(-c2nc3cc(Cl)ccc3n2Cc2ccccc2)c[nH]1 reads 13.6%	20600 nM [rising, single point]	–
# COc1cc(OC)cc(C(C(=O)NCc2ccccc2)N(Cc2ccco2)C(=O)c2ccno2)c1 (stereo not drawn) reads 5.79%	–	1840 nM [rising, partial curve, poor fit]
